From article PMC10163288
The list shows a part of the results.

B1: il10ra_site1_normal_mot_HHH_b1_08477_000000091_0001_40_57_H_._HHH_b2_03987_af2_0002_0000600012_0000001_0 (protein)
chain: SSSSNEAEEAVRRALESAERAYELGDPELVEQALRFAEALAKALNDPELQELVEEVKEELSSSSS
B2: il10ra_site1_normal_mot_HHH_b1_00999_000000080_0001_41_55_H_._HHH_b1_03194_0001_0000400033_0000002_0 (protein)
chain: SSSSSSDVEELLEELEELLEEGNKEEALRILQEALRHAFRNSDPELLKRLWEFARRLGSSSSSSS
B3: il10ra_site1_sap_26_mot_HHH_b2_05323_000000159_0001_1_18_H_._HHH_b1_03540_af2_0001_0000800033_0000001_0_0001 (protein)
chain: SSSSSELEEEVRKLLEEAEELAERGDEKYAKVLQEAVHLVMHNGNKELLQLIWRVVKELASSSSS
B4: il10ra_site1_normal_mot_HHH_b1_05357_000000034_0001_23_39_H_._HHH_b2_05651_0002_0000100005_0000001_0_af2pred_0001 (protein)
chain: SSSSDKELEEEVEELLEEAEKSTDRHEISYLLIRAFALANRVNDPELRKEVERVAQELSNSSSSS
B5: il10ra_site1_normal_mot_HHH_b1_05254_000000006_0001_1_19_H_._HHH_b2_04238_0001_0000600040_0000001_0 (protein)
chain: SSSSSEEVEEEVERLLEEARKIEDPDEFYRLLREAIELAAENNDPELVRLVIEAFREWLHSSSSS
B6: il10ra_site1_normal_mot_HHH_b2_00479_000000091_0001_1_12_H_._HHH_b2_03846_0001_0000400033_0000001_0_af2pred_0001 (protein)
chain: SSSSSSIHELLRLAREILELREEGDEEEAERLIEELERLAKELNDPLAEFIARALRRALESSSSS
B7: il10ra_site1_normal_mot_HHH_b1_05098_000000185_0001_1_18_H_._HHH_b1_08206_0001_0000200007_0000002_0 (protein)
chain: SSSSDKRERALELVLEAFRLLLRGNPEEAEELLEEAEKLAEEINNEQLLRVIQQLLETVRSSSSS
B8: il10ra_site1_normal_mot_HHH_b2_00273_000000062_0001_23_39_H_._HHH_b2_04285_0001_0000400025_0000001_0 (protein)
chain: SSSSDLEEQIEELREELREALERGDKELALRLLQELIRLAFATSDQELLRELWEIVRKLASSSSS
B9: il10ra_site1_sap_21_mot_104c758fc23488854646035ccb2100c6_0001_000000282_0001_15_29_H_._203a44625a3a2ba431098544127a80a6_0001_0001_0000100001_0000002_0_0001_af2p … (protein)
chain: SSSEEEVEELVKEVERVAEERGDPEARLAARVLKASAEAARELNNEEALRIISWALRAFKQVFSS
B10: il10ra_site1_sap_14_mot_HHH_b2_03038_000000109_0001_1_20_H_._HHH_b1_00475_0001_0000200015_0000001_0_0001 (protein)
chain: SSDTHQEFFRVVREAIEAAADNDDEEAEELVKEAEEIAKEIGNQVARWIVEFVKRLVEKLRSSSS
B11: il10ra_site1_normal_mot_8756ee2cf497b5429c717dfc0c0bcfd6_0001_000000186_0001_1_13_H_._HHH_b2_05518_af2_0001_0000900034_0000001_0 (protein)
chain: SSSSDEENHELYELLRELAELHAEGDRERAEKLAEELEELAEELNNDVVLAQVKYLLRALSSSSS
B12: il10ra_site1_normal_mot_HHH_b1_02004_000000220_0001_1_19_H_._HHH_b1_04324_af2_0001_0000100003_0000002_0 (protein)
chain: SSSSDEEFEEFKRLVEKVAELLEEGDEEKAEELIERLEELAEERNTPALEWSVRLLKRVLSSSSS
B13: il10ra_site1_sap_17_mot_HHH_b1_06914_000000280_0001_1_18_H_._HHH_b2_02639_0001_0000100004_0000002_0_0001_af2pred_0001 (protein)
chain: SDEEERIFRIVIEAYRELLKAGVSKEEIAKANARLVEALRRGVSAEEVEEIAEEIVREAKEESSS
B14: il10ra_site1_normal_mot_HHH_b1_06789_af2_000000041_0001_1_20_H_._HHH_b2_01741_0001_0000300028_0000001_0_af2pred_0001 (protein)
chain: SSSSNTEHLVRLALRAAENAAKKGDPERAEEILKLAEFLAELANDPELEELVEEVRKRVEGSSSS
B15: il10ra_site1_sap_13_mot_HHH_b2_06979_000000158_0001_42_57_H_._HHH_b1_06674_0001_0000300029_0000001_0_0001 (protein)
chain: SSSSSTESEELQELIERAAELLRNGDEEEAEEILQEVQRLAEEAGNWVIRFAAEVLLKNISSSSS
B16: il10ra_site1_normal_mot_HHH_b1_02997_000000220_0001_39_52_H_._HHH_b1_05152_af2_0001_0000500023_0000001_0_af2pred_0001 (protein)
chain: SSSSSSETEEIIRLIRRALELAREDPEEAEELLRRAEELAEEINNLTLRFQVEFALRRLSSSSSS
B17: il10ra_site1_sap_20_mot_HHH_b1_02637_000000294_0001_42_59_H_._HHH_b1_01330_af2_0001_0000400015_0000001_0_0001 (protein)
chain: SSSSDEAQEEAEELLEELEKALREGDREKALRIAQRAIRAAFQAGDPELLRAIWELLKEFNSSSS
B18: il10ra_site1_sap_23_mot_HHH_b2_03220_af2_000000223_0001_23_40_H_._HHH_b2_07389_af2_0001_0000300019_0000001_0_0001_af2pred_0001 (protein)
chain: SSSSSAFEDIVRLALKTAEIAKEKGDEEKVERALEIARRSARLANDPELEELVEEVEERLSSSSS
B19: il10ra_site1_normal_mot_HHH_b2_00479_000000091_0001_1_12_H_._HHH_b2_05755_0001_0000100011_0000002_0_af2pred_0001 (protein)
chain: SSSSDELRRLVELAREILEVIQEGDEERAEELLEELEELAKESNNPLAEFILEALRRRLGSSSSS
B20: il10ra_site1_sap_24_mot_HHH_b2_03183_af2_000000055_0001_40_56_H_._HHH_b1_03848_0001_0000100008_0000001_0_0001 (protein)
chain: SSSDVEEEVEELEERIRELIEEGDRERAVRLAQRLVQLAFEANDPRIFRAIIELAELIKRISSSS
B21: il10ra_site1_normal_mot_HHH_b2_00622_af2_000000153_0001_40_57_H_._HHH_b2_08056_0001_0000200009_0000001_0_af2pred_0001 (protein)
chain: SSSSDLEELRRLVEELLEELEELGDERAVEALRRLLRAAERLKNPQSLRVALWLAEAALEESSSS
B22: il10ra_site1_sap_17_mot_HHH_b1_08742_000000056_0001_1_20_H_._HHH_b2_02292_af2_0001_0000400025_0000002_0_0001 (protein)
chain: SSSSDEERHKLAELVMRAARLMFRGNPEEAREVLEEAEQLARELGDERMLKLVEQLLKTLSSSSS
B23: il10ra_site1_sap_19_mot_HHH_b1_04228_af2_000000161_0001_1_18_H_._HHH_b2_03736_af2_0001_0000600013_0000001_0_0001 (protein)
chain: SSSSDAEERVEELLELLEELLERNDEEEFAEVAQEAVRLAFEAGNKELLRQIWELIQRLRSSSSS
B24: il10ra_site1_normal_mot_HHH_b1_06789_af2_000000041_0001_1_20_H_._HHH_b2_02893_0001_0000300015_0000001_0_af2pred_0001 (protein)
chain: SSSSSSSEELVKIALKAVRIAFEAGDPEQAKRALEIARLLAEQANNPELEEEVEELEKELSSSSS

target: il10ra, Q13651; experiment: yeast display titration

Apparent Kd, inactive:
B1 no binding seen
B2 no binding seen
B3 no binding seen
B4 no binding seen
B5 no binding seen
B6 no binding seen
B7 no binding seen
B8 no binding seen
B9 no binding seen
B10 no binding seen
B11 no binding seen
B12 no binding seen
B13 > 1120 nM
B14 no binding seen
B15 no binding seen
B16 no binding seen
B17 no binding seen
B18 no binding seen
B19 no binding seen
B20 no binding seen
B21 no binding seen
B22 no binding seen
B23 no binding seen
B24 no binding seen

Fetched one by one from the list above (two):
Apparent Kd, inactive:
B19 no binding seen
B23 no binding seen
